Source: US20190192484A1 (UNIVERSITY OF CHICAGO, published 2019)

Biological target: T1, Desmoplakin (endogenous, WT fibroblasts) (mouse, UniProt E9Q557 1-2883, limits assumed)
T1 construct: Positive control partner of vimentin in the proximity ligation assay
Test: proximity ligation assay in WT fibroblasts, positive control (FIG. 8F)
Description: The interactions between Tubulin and MAP1β (FIG. 8E) or interaction between Desmoplakin and Vimentin (FIG. 8F) were detected with corresponding antibodies as indicated and used as positive controls.

- binding result: binds
B1: Vimentin (endogenous, WT fibroblasts) (other, mouse, UniProt P20152 2-466, looked up)
chain: STRSVSSSSYRRMFGGSGTSSRPSSNRSYVTTSTRTYSLGSALRPSTSRSLYSSSPGGAYVTRSSAVRLRSSVPGVRLLQDSVDFSLADAINTEFKNTRTNEKVELQELNDRFANYIDKVRFLEQQNKILLAELEQLKGQGKSRLGDLYEEEMRELRRQVDQLTNDKARVEVERDNLAEDIMRLREKLQEEMLQREEAESTLQSFRQDVDNASLARLDLERKVESLQEEIAFLKKLHDEEIQELQAQIQEQHVQIDVDVSKPDLTAALRDVRQQYESVAAKNLQEAEEWYKSKFADLSEAANRNNDALRQAKQESNEYRRQVQSLTCEVDALKGTNESLERQMREMEENFALEAANYQDTIGRLQDEIQNMKEEMARHLREYQDLLNVKMALDIEIATYRKLLEGEESRISLPLPTFSSLNLRETNLESLPLVDTHSKRTLLIKTVETRDGQVINETSQHHDDLE
